Laboratory results: patent US6810371B1 (priority 1906, dated 2004)

How the values were obtained:
[1] = Residual amount at floor, wall and ceiling after residual spraying (Example 1); conditions: for RESIDUAL AMOUNT FLOOR / RESIDUAL AMOUNT WALL: mean
[2] = Concentration in indoor air after residual spraying of aerosol (Examples 1 to 4); conditions: for mean annual concentration in the air including 8-week spraying period / mean concentration in the air during the spraying period / maximum concentration in the air immediately after spraying / CONCENTRATION IN AIR 25 [cm] / CONCENTRATION IN AIR 120 [cm]: Example 1; for mean concentration in the air during the spraying period: 8-week spraying period; for maximum concentration in the air immediately after spraying: average at heights of 25 cm and 120 cm from center of floor; for CONCENTRATION IN AIR 25 [cm] / CONCENTRATION IN AIR 120 [cm]: mean
[3] = SPRAYING PERIOD, mean of inflow, discharge and lateral sides
[4] = Example 4, air-conditioner used
[5] = window closed state, air-conditioner not used

Structure (SMILES)	residual amount at the wall on the discharge side [1]	residual amount at the wall on the inflow side [1]	residual amount at the wall on the lateral side [1]	RESIDUAL AMOUNT FLOOR ([1]; ANNUAL)	RESIDUAL AMOUNT WALL ([1]; ANNUAL)	RESIDUAL AMOUNT FLOOR ([1]; SPRAYING PERIOD)	RESIDUAL AMOUNT WALL [1, 3]	mean annual concentration in the air including 8-week spraying period [2]	mean concentration in the air during the spraying period [2]	maximum concentration in the air immediately after spraying [2]	CONCENTRATION IN AIR 25 [cm] ([2]; ANNUAL)	CONCENTRATION IN AIR 120 [cm] ([2]; ANNUAL)	CONCENTRATION IN AIR 25 [cm] ([2]; SPRAYING PERIOD)	CONCENTRATION IN AIR 120 [cm] ([2]; SPRAYING PERIOD)	mean concentration in the air ([2]; Example 3, window opened for 5 minutes)	mean concentration in the air ([2]; Example 3, window opened for 2 hours)	mean concentration in the air [2, 4]	mean concentration in the air [2, 5]
CC(C)=CC1[C@@H](C(=O)OCc2cccc(Oc3ccccc3)c2)C1(C)C (stereo in doubt) [d-phenothrin]	45 μg/m^2	28 μg/m^2	33 μg/m^2	360 μg/m^2	7 μg/m^2	2200 μg/m^2	33 μg/m^2	0.43 μg/m^3	2.35 μg/m^3	752 μg/m^3	0.41 μg/m^3	0.45 μg/m^3	2.35 μg/m^3	2.35 μg/m^3	2.88 μg/m^3	1.19 μg/m^3	11.6 μg/m^3	14.8 μg/m^3
CC(C)=CC1[C@@H](C(=O)OCN2C(=O)C3=C(CCCC3)C2=O)C1(C)C (stereo in doubt) [d-tetramethrin]	58 μg/m^2	35 μg/m^2	43 μg/m^2	400 μg/m^2	15 μg/m^2	2500 μg/m^2	43 μg/m^2	0.53 μg/m^3	3.25 μg/m^3	1040 μg/m^3	0.54 μg/m^3	0.52 μg/m^3	3.31 μg/m^3	3.19 μg/m^3			15.5 μg/m^3	20.2 μg/m^3
